Experimental data from US20210147525A1 (University of California, published 2021).
Numbering of substitutions follows the chain as printed. These are yes or no findings as the source states them, for the method shown. Binding calls can cover weak binding; strength is not graded here.

B1: 8-A7 (antibody, V domains shown)
VH: EVQLLESGGGLVQPGGSLRLSCAASGFTFRNYAMSWVRQAPGKGLEWVSSISGGGINTYYADSVKGRFTISRDNSKNTLYLQMNSLRAEDTAVYYCARVRSYSGPGYFDYWGQGTLVTVSS
VL: EIVMTQSPATLSVSPGDRATLSCRASRSVSSNLAWYQQKPGQAPRLLIYGASTRATGIPARFSGSGSGTEFTLTISSLQSEDFAVYYCQQYYNWPLTFGQGTKVEIK
B2: 8-F1 (antibody, V domains shown)
VH: EVQLLESGGGLVQPGGSLRLSCAASGFTFTDYAMSWVRQAPGKGLEWVSGISGSGGVGTYYADSVKGRFTISRDNSKNTLYLQMNSLRAEDTAVYYCARGEYGSSIAYSYYYGFDVWGQGTLVTVSS
VL: B1 VL with D17E, R27Q, S30Y, S31N, G50D, Y92N, N93D, L96Y
B3: 8-E3 (antibody, V domains shown)
VH: EVQLLESGGGLVQPGGSLRLSCAASGFTFSNYAMSWVRQAPGKGLEWVSTIYRGAGTYYADSVKGRFTISRDNSKNTLYLQMNSLRAEDTAVYYCARDASWYGPFSYYYYYGFDVWGQGTLVTVSS
VL: B1 VL with D17E, R27Q, S30Y, S31T, G50D, Y92N, N93D
B4: 8-A8 (antibody, V domains shown)
VH: EVQLLESGGGLVQPGGSLRLSCAASGFTFSNYAMSWVRQAPGKGLEWVSVIYGSGARTYYADSVKGRFTISRDNSKNTLYLQMNSLRAEDTAVYYCARISPHYDFDVWGQGTLVTVSS
VL: DIQMTQSPSSLSASVGDRVTITCRASQTISKYLNWYQQKPGKAPKLLIYAASSLQSGVPSRFSGSGSGTDFTLTISSLQPEDFATYYCQQSYSYPITFGQGTKVEIK
B5: 8-E2 (antibody, V domains shown)
VH: QVQLVQSGAEVKKPGSSVKVSCKASGGTFSDEAIHWVRQAPGQGLEWMGRIIPVLGIASYAQKFQGRVTITADESTSTAYMELSSLRSEDTAVYYCARGLSRKAFYFDYWGQGTLVTVSS
VL: B4 VL with S30G, K31N, A50V, S93R, I96Y
B6: 8-C4 (antibody, V domains shown)
VH: EVQLLESGGGLVQPGGSLRLSCAASGFTFSNYAMSWVRQAPGKGLEWVSAIYGSGGRTYYADSVKGRFTISRDNSKNTLYLQMNSLRAEDTAVYYCARLRYGFYQFDYWGQGTLVTVSS
VL: B4 VL with T28S, S30R, K31N, Q37E, I96L
B7: 8-F2 (antibody, V domains shown)
VH: EVQLLESGGGLVQPGGSLRLSCAASGFTFSNYAMSWVRQAPGKGLEWVSAISGGGSRTYYADSVKGRFTISRDNSKNTLYLQMNSLRAEDTAVYYCAREARVLGYSLDYWGQGTLVTVSS
VL: B4 VL with T28R, S30G, I96L
B8: 8-A9 (antibody, V domains shown)
VH: B7 VH
VL: B4 VL with T28R, S30G, I96L
B9: 8-C11 (antibody, V domains shown)
VH: EVQLLESGGGLVQPGGSLRLSCAASGFTFSSYAMSWVRQAPGKGLEWVSTIYVGGHRTYYADSVKGRFTISRDNSKNTLYLQMNSLRAEDTAVYYCARVGWSWGFDPWGQGTLVTVSS
VL: B4 VL with A50S, S93T, I96L
B10: 8-C10 (antibody, V domains shown)
VH: EVQLLESGGGLVQPGGSLRLSCAASGFTFSSYAMSWVRQAPGKGLEWVSTISASGATYYADSVKGRFTISRDNSKNTLYLQMNSLRAEDTAVYYCARGPYSYYYYSFDYWGQGTLVTVSS
VL: B4 VL with K31T, S93R, I96L
B11: 8-C6 (antibody, V domains shown)
VH: EVQLLESGGGLVQPGGSLRLSCAASGFTFTDYAMSWVRQAPGKGLEWVSTIYSSGHRTYYADSVKGRFTISRDNSKNTLYLQMNSLRAEDTAVYYCARLYPLHSYAFDHWGQGTLVTVSS
VL: B4 VL with P8H, T28S, K31R, Y94V, I96L

What follows are binders tested against human PLXDC1 protein, biotinylated (bait of the antibody library screen) (human) (assay: antibody library screen on biotinylated PLXDC1 with activating compound).

Row | binding | Binder
1 | binds | B1
2 | binds | B2
3 | binds | B3
4 | binds | B4
5 | binds | B5
6 | binds | B6
7 | binds | B7
8 | binds | B8
9 | binds | B9
10 | binds | B10
11 | binds | B11
